The list shows a part of the results. Rule as the data show it: active = 2-fold of DMSO or more and inactive = the rest. Single values of this set are uncertain. Some low values are a fixed figure set by the source, not a measured ratio.

The assay has as its system CM7/1-hgem mouse ES cell-derived cardiomyocytes. Put plainly: maximal number of mAG-hGem(1/110)-positive cardiomyocytes over 96 h, fold-change vs DMSO; higher = more cardiomyocyte cell cycle activity. The settings on record: 1 µM; 96 (max over 12 h time points) h.
With `C[C@]1(Cn2ccnn2)[C@H](C(=O)O)N2C(=O)C[C@H]2S1(=O)=O`, the maximal number is inactive: 1.

`CC12CCC3C(CC3(C)C)C(C)(CCC1=O)O2` (configuration not stated): the maximal number is inactive: 0.

Regarding `CC(N)C(=O)OC(C)(C)Cc1ccc(Cl)cc1` (configuration not stated), the maximal number is inactive: 0.5.

As for `Oc1ccc([C@H]2Oc3cc(O)cc(O)c3C[C@H]2O)cc1`, the maximal number is inactive: 1.

Take `Oc1cc(O)c2c(c1)O[C@H](c1cc(O)c(O)c(O)c1)[C@H](O)C2`: the maximal number is inactive: 1.

With `OC[C@@H](O)[C@@H](O[C@@H]1O[C@H](CO)[C@@H](O)[C@H](O)[C@H]1O)[C@H](O)[C@@H](O)CO`, the maximal number was inactive: 1.

For `CCOC(=O)C1=C(C)NC(C)=C(C(=O)OC)C1c1cccc([N+](=O)[O-])c1` (configuration not stated), the maximal number was inactive: 1.

On to `O=C(O)c1cc(O)c2c(c1)[C@H]([C@H]1c3cc(C(=O)O)cc(O)c3C(=O)c3c(O[C@@H]4O[C@H](CO)[C@@H](O)[C@H](O)[C@H]4O)cccc31)c1cccc(O[C@@H]3O[C@H](CO)[C@@H](O)[C@H](O)[C@H]3O)c1C2=O`, for which the maximal number is inactive: 1.

Consider `C[n+]1cccc(C(=O)[O-])c1`, for which the maximal number is inactive: 1.

With `COC1=C(OC)C(=O)C(C/C=C(\C)CC/C=C(\C)CC/C=C(\C)CC/C=C(/C)CC/C=C(\C)CC/C=C(\C)CC/C=C(\C)CC/C=C(\C)CC/C=C(\C)CCC=C(C)C)=C(C)C1=O`, the maximal number is inactive: 1.

With `CC(=O)Oc1cccc(O)c1`, the maximal number is inactive: 1.

Take `COc1ccc2c(c1)OCC(Cc1ccc(OC)c(OC(C)=O)c1)C2=O` (configuration not stated): the maximal number was inactive: 1.

Take `Cc1nccn1CC1CCc2c(c3ccccc3n2C)C1=O` (configuration not stated): the maximal number was inactive: 1.

Turning to `Cc1c(C(=O)O)c(O)cc2c1C(=O)c1c(O)c([C@@H]3O[C@H](CO)[C@@H](O)[C@H](O)[C@H]3O)c(O)c(O)c1C2=O`, the maximal number was inactive: 1.

`COc1ccc(C(=O)c2ccc(O)cc2)c(O)c1O`: the maximal number was inactive: 1.

Regarding `CC(C)Cc1ccc([C@H](C)C(=O)O)cc1`, the maximal number is inactive: 1.

Regarding `CC(=O)O[C@@H]1CC[C@@]2(C)C(C[C@@H](OC(C)=O)[C@@]3(C)C4=CC(=O)O[C@@H](c5ccoc5)[C@]4(C)CCC23)C1(C)C` (stereo partly drawn) [3alpha-ACETOXYDIHYDRODEOXYGEDUNIN], the maximal number is inactive: 1.

In the case of `Nc1[nH]cnc2ncnc1-2`, the maximal number is inactive: 1.

As for `COc1ccc([C@@H](C)C(=O)c2ccc(O)cc2O)cc1`, the maximal number is inactive: 1.

In the case of `O=C1CC[C@@H](C(=O)N2CSC[C@H]2C(=O)O)N1`, the maximal number was active: 2.

Take `CCCCCN(CCCCC)C(=O)C(CCC(=O)O)NC(=O)c1ccc(Cl)c(Cl)c1` (configuration not stated): the maximal number is inactive: 0.

On to `COc1ccc2c(c1)OCC(Cc1ccc(OC)c(OC)c1)C2=O` (configuration not stated), for which the maximal number is inactive: 1.

In the case of `CC1=C2C(O)C(=O)OC3CC4C(C)(C)C(=O)C=C[C@]4(C)C(CC1)[C@]23C` (some centres not stated), the maximal number was inactive: 1.

`CCOC(=O)c1c(C)cc(O)c(C=O)c1O`: the maximal number is inactive: 1.

As for `O=C(O[C@@H]1Cc2c(O)cc(O)cc2O[C@@H]1c1cc(O)c(O)c(O)c1)c1cc(O)c(O)c(O)c1`, the maximal number was inactive: 0.

On to `CC1(C)[C@@H](O)CC[C@]2(C)[C@H]3C(=O)C=C4[C@H]5C[C@@](C)(C(=O)O)CC[C@]5(C)CC[C@@]4(C)[C@]3(C)CC[C@@H]12` [18alpha-GLYCYRRHETINIC ACID], for which the maximal number was inactive: 1.

For `C=C(C)[C@@H]1CC[C@]2(C(=O)O)CC[C@]3(C)[C@H](CC[C@@H]4[C@@]5(C)CC[C@H](O)C(C)(C)[C@@H]5CC[C@]43C)[C@@H]12`, the maximal number is inactive: 1.

With `CC1(C)OC(=O)C(OCC2CC2)=C1c1ccc(S(C)(=O)=O)cc1`, the maximal number is inactive: 1.

For `COc1cc(CNC(=O)CCCC/C=C/C(C)C)ccc1O`, the maximal number is inactive: 1.

With `CN1CCC[C@H]1c1cccnc1`, the maximal number was inactive: 1.

With `COC(=O)CC[C@@H](C)[C@H]1CC[C@H]2[C@@H]3CC[C@@H]4C[C@H](O)CC[C@]4(C)[C@H]3C[C@H](O)[C@]12C`, the maximal number is inactive: 1.

As to `CC(=O)OCC(=O)[C@H]1CC[C@H]2[C@@H]3CCC4=CC(=O)CC[C@]4(C)[C@H]3CC[C@]12C`, the maximal number is inactive: 0.5.

In the case of `CCOC(=O)CC(=O)N1CCSC1COc1ccccc1OC` (configuration not stated), the maximal number was inactive: 1.

On to `O=C(O[C@@H]1Cc2c(O)cc(O)cc2O[C@@H]1c1cc(O)c(=O)c2c(O)c(O)cc([C@H]3Oc4cc(O)cc(O)c4C[C@H]3O)c2c1)c1cc(O)c(O)c(O)c1`, for which the maximal number is inactive: 1.

On to `CNC(=O)c1c(I)c(NC(C)=O)c(I)c(C(=O)O)c1I`, for which the maximal number is inactive: 1.

For `CO/N=C(\C(=O)N[C@@H]1C(=O)N2C(C(=O)O)=C(CSc3nnnn3C)CS[C@H]12)c1csc(N)n1`, the maximal number was inactive: 0.5.

With `O=C(Cc1ccccc1)NO`, the maximal number was inactive: 1.
